Consider three molecules from article PMC2587467.

These are yes or no findings as the source states them, for the method shown. In cells and extracts the contact can be indirect. Binding calls can cover weak binding; strength is not graded here.

Test [1] concerns the target protein phosphatase one (PP1), rat liver nuclei (rat (endogenous in rat liver nuclei)). Briefly: pull-down; synthetic peptide (0.1, 0.5, 2 mM in buffer A plus 300 mM NaCl, pH 7.5) incubated 30 min with PP1 complexes from rat liver nuclei held on microcystin-Sepharose; displacement of regulatory subunits read by western blot; more effective at higher ionic strength; only the binder purified.

Test [2] shares this target. Briefly: pull-down; rat liver nuclear extract incubated with microcystin-Sepharose 1 h at 4°C, washed with buffer A (25 mM Tris-HCl pH 7.5) plus 300 mM NaCl; PP1 held on the matrix; proteins eluted with peptide (0.1-2 mM), then 3 M NaSCN; western blot. (In western blotting, separated proteins are transferred to a membrane and probed.)

B1: ZAP peptide … (peptide)
peptide: GKKRVRWADLE
Turning to B1, the binding entry in test [1] is “binds”.

B2: ZAP (ZAP3), YLPM-motif containing PP1 interactor, rat liver nuclei (protein, UniProt P0CB49 1-1376)
chain: MYPNWGRYGGSSHYPPPPVPPPPPPVALPEASPGPGYSSSTAPAAPSSSGFMSFREQHLAQLQQLQQMHQKQMQCVLQPHHLPPPPLPPPPVMPGGGYGDWQPPPPPMPPPPGPALSYQKQQQYKHQMIHHQRDGPPGLVPMELESPPESPPVPPGSYMPPSQSYMPPPQPPPSYYPPSSAQPYLPPAQPSPSKPQLPPPPPSIPSGNKTTIQQEPLETGAKNKNAEQKQAAPEPDPSTMTPQEQQQYWYRQHLLSLQQRTKVHLPGHKKGLVTAKDVPEPIKEEAPVPATSQIAEPLAAEEPPLPPPNEEMPPPLPPEEPQNNSSEMSEDPEEDARLKQLQAAAAHWQQHQQHRVGFQYQGIMQRHTQLQQILQQYQQVIQHSPHIQTMSLDVQLRHYEMQQQQFQRLYQEWEREFQLWEEQLHSYPHKDQLEEYEKQWKSWQGHMRATQTYLQEKVTSFQAVKNQYMGNMAMPPPFVPYSQMPPPLPTMPPPVLPPSLPPPVMPPALPSTIPPPGMPPPVMPPSLPTSVPPPGMPPSLSSAVLPPPSLSSAGPPPVLPPPSLSGAPPVLPLPPLSSATPPPGIPPPGVPQGMPPQLTAPVPPASSSQNSQVPEKPRQALLPTPVSFGSTPPSPYHPPPQSEQGNSKPLNKVFSSEQGLGESSSALSQSVIAAKDTPVKSGGLLADPPKGSFLEGPRGPREQKEQLQKLKDFGSEPQTADHLPPPDSRLQNTSRPGMYPPPGSYRPPPPMGKPPGSIVRPSAPPARSCVPMTRPPVPIPPPPPPPPPPPPPPPVIKPKTSSVKQERWDEDSFFGLWDTNDDQGLNSEFKRDTAAIPSAPVLPPPPVHPSIPPPGPMPMGMPPMSKPPPVQHTVDYGHGRDMPTNKVEQIPYGERITLRPDPLPERSAFDADHAGQRDRYDRDRDREPYFDRQSNMTDHRDFKRDRETHRDRDRVLDYERDRFDRERRPRDDRNQSYRDKKDHSSSRRGGFDRPSYDRKSDRPPYEGPPMFGGERRTYPEERMPLPAPSLGHQPPPVPRVEKKPESKNVDDILKPPGRESRPERIVVIMRGLPGSGKTHVAKLIRDKEVEFGGPAPRVLSLDDYFIAEVEKEEKDPDSGKKVKKKVMEYEYEADMEETYRTSMFKTFKKTLDDGFFPFIILDAINDRVRHFDQFWSAAKTKGFEVYLAEMSADNQTCGKRNIHGRKLKEINKMAEHWEAAPRHMMRLDIRSLLQDAAIEEVEMEDFDANIEDQKEEKKDAEEEESELGYIPKSKWEMDTSEAKLDKLDGLRTGTKRKRDWEAIASRMEDYLQLPDDYETRASEPGKKRVRWADLEEKKDADRKRAIGFVVGQTDWEKITDESGHLAERALNRTKYI
As for B2, in test [2], the binding result is “binds”.

B3: p99 (PNUTS), rat liver nuclei (protein, UniProt O55000 1-872)
chain: MGSGPIDPKELLKGLDSFLTRDGEVKSVDGIAKIFSLMKEARKMVSRCTYLNIILQTRAPEVLVKFIDVGGYKLLNSWLTYSKTTNNIPLLQQILLTLQHLPLTVDHLKQNNTAKLVKQLSKSSEDEELRKLASVLVSDWMAVIRSQSSTQPAEKDKKKRKEEGKSRTTLPERPLTEVKAETRAEEAPEKKKEKPKSLRTTAPSHAKFRSTGLELDTPSLVPVKKNSSTVVVSDKYNLKPIPLKRQSATAAPGDAAPPAEKKYKPLNTTPNTTKEIKVKIIPPQPMEGLGFLDALNSAPVPGIKIKKKKKVLSPTAAKPSPFEGKTSTEPSTAKPSSPEPAAPAEPMDTDRPGTPVPAVEVPELMDAASSEPGALDAKPVESPGDPNQLTRKGRKRKTVTWPEEGKLREYFYFELDETERVNVNKIKDFGEAAKREILSDRHAFETARRLSHDNMEEKVPWVCPRPLVLPSPLVIPGSNSQERYIQAEREKGILQELFLNKESPHEPDPEPYEPIPPKLIPLDEECAMDETPYVETLEPGGSGGSPDGAGGSKLPPVLANLMGSMGAGKSPQGPGGGGINVQEILTSIMGSPNNHPSEELLKQPDYSDKLKQMLVPHGLLGPGPVANGFPPGGPGGPKGMQHFPPGPGGPMPGPHGGPGGPVGPRLLGPPPPSRGGDPFWDGPGDPMRGGPMRGGPGPGPGPYHRGRGGRGGNEPPPPPPFRGARGGRSGGGPPNGRGGPGGGGMVGGGGHRPHEGPGGSMGSGHRSHEGPGGSMGSGHRSHEGPGHGGPHGHRPHDVPSHRGHDHRGPPPHEHRGHDGHGGGGHRGHDGGHSHGGDMSNRPVCRHFMMKGNCRYENNCAFYHPGVNGPPLP
Consider B3, for which, in test [2], the binding entry is “binds”.
